Data: patent US20050042220A1 (GENETICS INSTITUTE, published 2005)
These are yes or no findings as the source states them, for the method shown. Some entries that bind do so weakly or less than the wild type. Sequences can lack the tags named with a protein.

Tests used:
[1] = biological target: T1, human IL-22R extracellular domain-Fc fusion homodimer (human) (UniProt Q8N6P7); assay: ELISA, receptor-Fc captured on anti-human IgG (FIG. 6A)
T1 sequence: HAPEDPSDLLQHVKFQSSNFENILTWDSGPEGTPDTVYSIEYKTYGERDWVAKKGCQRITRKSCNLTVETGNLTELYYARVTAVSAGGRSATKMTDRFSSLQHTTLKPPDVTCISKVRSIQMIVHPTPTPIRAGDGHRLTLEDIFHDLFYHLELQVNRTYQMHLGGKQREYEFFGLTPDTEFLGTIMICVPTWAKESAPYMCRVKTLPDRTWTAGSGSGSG

[2] = biological target: T2, IL-22R-Fc/IL-10R2-Fc heterodimer from co-expressing CHO cells (human) (UniProt Q8N6P7+Q08334); assay: ELISA, receptor-Fc captured on anti-human IgG (FIGS. 8A-8B)
T2 sequence 1: T1 sequence
T2 sequence 2: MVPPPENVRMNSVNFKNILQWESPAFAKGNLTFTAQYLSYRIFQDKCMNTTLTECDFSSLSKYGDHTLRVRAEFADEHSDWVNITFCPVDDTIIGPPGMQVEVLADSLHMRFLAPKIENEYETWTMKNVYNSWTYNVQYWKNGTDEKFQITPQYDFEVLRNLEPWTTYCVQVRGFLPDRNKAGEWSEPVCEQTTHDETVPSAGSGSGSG

[3] = biological target: T1, human IL-22R extracellular domain-Fc fusion homodimer (human); assay: ELISA, receptor-Fc captured on anti-human IgG, streptavidin-HRP (FIG. 6A)
[4] = biological target: T1, human IL-22R extracellular domain-Fc fusion homodimer (human); assay: ELISA, 50 ng/ml total Fc captured on anti-human IgG, bio-IL-22 titrated (FIG. 8A)
[5] = biological target: T2, IL-22R-Fc/IL-10R2-Fc heterodimer from co-expressing CHO cells (human); assay: ELISA, conditioned medium titrated onto anti-human IgG, bio-IL-22 30 ng/ml (FIG. 8B)
[6] = biological target: T1, human IL-22R extracellular domain-Fc fusion homodimer (human); assay: ELISA: 50 ng/ml IL-22R-Fc captured on anti-human IgG wells; bio-IL-22 30 ng/ml; streptavidin-HRP, A450
[7] = biological target: T3, human IL-22 binding protein-Fc fusion (human, UniProt Q969J5-2 22-231, limits assumed); assay: ELISA: 50 ng/ml IL-22BP-Fc captured on anti-human IgG wells; bio-IL-22 1 ng/ml; streptavidin-HRP, A450
T3 construct: Fc fusion homodimer, used as CHO conditioned medium; also called IL-22BP-Fc; huIL22BP-huFc; not shown: human IgG1 Fc
T3 sequence: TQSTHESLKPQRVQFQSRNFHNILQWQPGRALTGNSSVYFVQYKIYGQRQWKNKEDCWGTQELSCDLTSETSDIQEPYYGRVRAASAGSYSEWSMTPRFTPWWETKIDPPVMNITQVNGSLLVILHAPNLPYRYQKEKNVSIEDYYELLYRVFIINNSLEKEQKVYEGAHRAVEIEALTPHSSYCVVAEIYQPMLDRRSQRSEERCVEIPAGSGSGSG

[8] = biological target: T1, human IL-22R extracellular domain-Fc fusion homodimer (human); assay: ELISA: 50 ng/ml total Fc of IL-22R-Fc CHO conditioned medium captured on anti-human IgG wells; bio-IL-22 titrated; streptavidin-HRP, A450
[9] = biological target: T2, IL-22R-Fc/IL-10R2-Fc heterodimer from co-expressing CHO cells (human); assay: ELISA: 50 ng/ml total Fc of co-expressed IL-22R-Fc/IL-10R2-Fc captured on anti-human IgG wells; bio-IL-22 5 ng/ml; streptavidin-HRP, A450
[10] = biological target: T4, 1:1 mixture of IL-22R-Fc homodimer and IL-10R2-Fc homodimer, immobilized together (human) (UniProt Q8N6P7+Q08334); assay: ELISA: 1:1 mixture of IL-22R-Fc medium and IL-10R2-Fc medium captured at varied total Fc on anti-human IgG wells; bio-IL-22 30 ng/ml; streptavidin-HRP, A450
T4 sequence 1: T1 sequence
T4 sequence 2: T2 sequence 2

[11] = biological target: T1, human IL-22R extracellular domain-Fc fusion homodimer (human); assay: ELISA: 1:1 mixture of IL-22R-Fc medium and irrelevant Fc protein captured at varied total Fc on anti-human IgG wells; bio-IL-22 30 ng/ml; streptavidin-HRP, A450
[12] = biological target: T2, IL-22R-Fc/IL-10R2-Fc heterodimer from co-expressing CHO cells (human); assay: ELISA: 50 ng/ml total Fc from medium of CHO cells co-expressing IL-22R-Fc and IL-10R2-Fc captured on anti-human IgG wells; bio-IL-22 titrated; streptavidin-HRP, A450
[13] = biological target: T2, IL-22R-Fc/IL-10R2-Fc heterodimer from co-expressing CHO cells (human); assay: ELISA: 1:1 mixture of co-expressed IL-22R-Fc/IL-10R2-Fc medium and control Fc protein captured at varied total Fc on anti-human IgG wells; bio-IL-22 30 ng/ml; streptavidin-HRP, A450

Measured: binding

B1: biotinylated N terminal His/Flag tagged human IL-22 (ligand)
chain: GSGHHHHHHGSGDYKDDDDKAPISSHCRLDKSNFQQPYITNRTFMLAKEASLADNNTDVRLIGEKLFHGVSMSERCYLMKQVLNFTLEEVLFPQSDRFQPYMQEVVPFLARLSNRLSTCHIEGDDLHIQRNVQKLKDTVKKLGESGEIKAIGELDLLFMSLRNACI
modifications: biotinylated with EZ-Link Sulfo-NHS-Biotin (sites not given)
notes: also called bio-IL-22; biotinylated IL-22
binds: all assays above
